Results deposited as PubChem BioAssay AID504791 (Drosophila RNAi Screening Center, 2011)

Purpose: 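Genes whose knock-down strengthens or weakens small-RNA reporter silencing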 (primary screen)
Cells: Drosophila S2-derived reporter cells
Knock-down reagent: long dsRNA against Drosophila genes, about 150-250 ng dsRNA per well (siRNA assay); about 80-120 ng (miRNA assay)
Duration: about 5 days (siRNA assay); about 4 days (miRNA assay)
Challenge: copper sulfate induction of reporters: 25 µM (siRNA assay); 200 mM stated (miRNA assay), 1-2 days before reading
Measured: 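Per-well ratio of Renilla over firefly light, expressed relative to that plate's average ratio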
Units: stable assay Renilla, run 1 in luminescence; stable assay firefly, run 1 in luminescence
Hit rule: 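First-pass picks had plate-scaled ratios over 1.5 for the siRNA assay, over 1.6 for the miRNA assay, or under 0.6; two distinct dsRNAs had to score alike on retest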
In all, the deposit lists about 23,000 reagents; shown is an unselected part of those with a known target gene and a result. In the full data, 199 (0.86%) were called active. 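Plate-scaled ratios behind the calls are not deposited; printed light signals are raw; many rows marked increased or decreased are still called inactive.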 A number with no mark means an inactive call. Names joined by + are all predicted targets of the reagent. Not stated in the record: the direction of the score.

Depletion of BI-1 (Bax Inhibitor-1) [DRSC10782] gave: stable assay Renilla, run 1 = 8306; stable assay firefly, run 1 = 5.13e5. CG14868 [DRSC14991] showed stable assay Renilla, run 1 = 4319; stable assay firefly, run 1 = 4.00e5. His1:CG33816 + His1:CG33828 + His1:CG33819 + 21 more [DRSC21266] scored stable assay Renilla, run 1 = 4267; stable assay firefly, run 1 = 3.88e5. Against UQCR-11L (Ubiquinol-cytochrome c reductase 11 kDa subunit-like) [DRSC22166], the values are stable assay Renilla, run 1 = 9319; stable assay firefly, run 1 = 5.31e5. Knock-down of CG13694 [DRSC00363] came out at: stable assay Renilla, run 1 = 7406; stable assay firefly, run 1 = 4.39e5. After knock-down of Cyp6a15Psi (pseudo) [DRSC07377] the results were stable siRNA reporter change reporter ratio raised past the hit cutoff; stable assay Renilla, run 1 = 7323; stable assay firefly, run 1 = 2.62e5.

With knock-down of Unc-76 (Uncoordinated 76) [DRSC18193], the screen gave stable assay Renilla, run 1 = 6686; stable assay firefly, run 1 = 3.64e5. For Unc-76 (Uncoordinated 76) [DRSC18560] the deposit lists stable assay Renilla, run 1 = 6448; stable assay firefly, run 1 = 3.35e5. For CG31266 [DRSC15747], the entry reads stable assay Renilla, run 1 = 6298; stable assay firefly, run 1 = 3.50e5. Depletion of CG6788 [DRSC20007] gave: stable assay Renilla, run 1 = 5920; stable assay firefly, run 1 = 3.91e5. For Wee1 (Wee1 kinase) [DRSC03635] the deposit lists stable assay Renilla, run 1 = 7478; stable assay firefly, run 1 = 4.26e5. Wee1 (Wee1 kinase) [DRSC23318] gave stable assay Renilla, run 1 = 5207; stable assay firefly, run 1 = 3.04e5.

Against CG32647 [DRSC19690], the entry reads stable assay Renilla, run 1 = 5407; stable assay firefly, run 1 = 5.09e5. Silencing of CG32647 [DRSC19878] came out at: stable assay Renilla, run 1 = 5416; stable assay firefly, run 1 = 5.30e5. Against loqs (loquacious) [DRSC02997], the values are stable assay Renilla, run 1 = 12735; stable assay firefly, run 1 = 5.17e5. Depletion of Cyp313a5 (Cytochrome P450 313a5) [DRSC16628] gave: stable assay Renilla, run 1 = 6436; stable assay firefly, run 1 = 4.00e5. For CG14658 [DRSC12244], the entry reads stable assay Renilla, run 1 = 8099; stable assay firefly, run 1 = 4.69e5. CG10344 [DRSC04066] gave stable assay Renilla, run 1 = 6103; stable assay firefly, run 1 = 3.52e5.

After knock-down of CG10344 [DRSC24394], the screen gave miRNA reporter change reporter ratio raised past the hit cutoff (active). CG15708 [DRSC06579] scored stable assay Renilla, run 1 = 6636; stable assay firefly, run 1 = 3.52e5. Against Cyp6a8 (Cytochrome P450 6a8) [DRSC07384], the values are stable assay Renilla, run 1 = 8154; stable assay firefly, run 1 = 5.05e5. Silencing of Alas (Aminolevulinate synthase) [DRSC04044] gave: stable assay Renilla, run 1 = 7374; stable assay firefly, run 1 = 1.40e6. After knock-down of COX2 (retired record) [DRSC21276] the results were stable assay Renilla, run 1 = 6427; stable assay firefly, run 1 = 3.50e5. Against CR31824 (pseudo) [DRSC01517], the entry reads stable assay Renilla, run 1 = 5139; stable assay firefly, run 1 = 3.73e5.

For yps (ypsilon schachtel) [DRSC11411], the values are stable assay Renilla, run 1 = 4943; stable assay firefly, run 1 = 2.84e5. After knock-down of sNPF (short neuropeptide F precursor) [DRSC02309], the screen gave stable assay Renilla, run 1 = 7935; stable assay firefly, run 1 = 3.48e5. Against CG6294 + CG6299 + CG15642 [DRSC19981], the values are stable assay Renilla, run 1 = 6564; stable assay firefly, run 1 = 4.49e5. After knock-down of CG31467 [DRSC16048], the record shows stable assay Renilla, run 1 = 6767; stable assay firefly, run 1 = 3.55e5.
